# The campaign covered roughly 340,000 compounds. About 4,500 (1.3%) were called active. The shares of active, inactive and inconclusive entries below differ from those in the screen. The call rests on the fitted dose curve; in most records, active means well fitted inhibition curve with a large enough effect; inconclusive means small, poorly fitted or top-dose-only effect, or another doubt; inactive means no such curve, though single readings can be large or run the other way. A potency beside an inconclusive call is a rough fit, not a confirmed value.
# Target: DNA polymerase beta (Homo sapiens) (UniProt P06746)
# Experiment: qHTS Assay for Inhibitors of DNA Polymerase Beta
# Conditions: Pol beta primer extension/strand displacement, fluorescence kinetic; activity change, negative = inhibition: at 114 µM (top of the series)
# How it was run: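 10 nM enzyme + cpd, 15 min RT; start with substrate 50 nM final; read 0 min and after 10 min RT. Corrected, normalized data; 4-parameter Hill curve fit.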
# On the % scale 0 is the no-effect control and ±100 the full control effect; potency means the concentration at half of the fitted maximal effect.
Structure (SMILES),Potency,"activity change, negative = inhibition"
N#Cc1c(Nc2cccc(F)c2)sc2c(O)cc(=O)[nH]c12,"inconclusive: 3.98 µM [inhibitor, full curve]",–
COc1ccc(Cl)cc1C(=O)NNC1CC(=O)N(Cc2ccc(Cl)cc2)C1=O (stereo unspecified),"inconclusive: 28.2 µM [inhibitor, full curve, poor fit]",–
COc1ccc(NC(=O)CN2C(=O)C(=O)c3ccccc32)c(OC)c1,inactive,–
Cc1cc(C(=O)OCC(=O)NCc2ccco2)c(C)o1,"inconclusive: 39.8 µM [inhibitor, single point]",–
CCc1nc(SCC(=O)NC2CC2)c2c(C)c(C)sc2n1,"inconclusive: 8.91 µM [inhibitor, partial curve]",–
CCn1c(=O)c2sccc2n2c(CCCC(=O)Nc3ccc(Oc4ccccc4)cc3)nnc12,inactive,–
COc1ccc(OC)c(NC(=O)N2CCC3(CC2)Oc2ccccc2C(=O)N3Cc2ccccc2F)c1,inactive,–
CCn1c2ccccc2c2cc(CNCc3ccc(OC)cc3OC)ccc21,"inconclusive: 100 µM [inhibitor, single point]",–
COc1cccc(NC(=O)COC(=O)c2ccc(S(=O)(=O)NCc3ccco3)cc2)c1,"inconclusive: 3.98 µM [inhibitor, full curve, poor fit]",–
CSc1nc(NCc2ccco2)c2c3c(sc2n1)CN(C)CC3,active: 39.8 µM,–
CCc1ccccc1NC(=O)Cn1nnc(C(=O)NCc2cccc(OC)c2)c1N,"inconclusive: 22.4 µM [inhibitor, full curve, poor fit]",–
CC1CCCC(NC(=O)COC(=O)c2ccccc2[N+](=O)[O-])C1C (stereo unspecified),inactive,–
O=C(N/N=C/C(Br)=C/c1ccccc1)c1cnccn1,"inconclusive: 39.8 µM [inhibitor, single point]",–
CN(C)c1nc(OCC(=O)NC(C)(C)C)nc(N(C)C)n1,"inconclusive: 39.8 µM [inhibitor, single point]",–
Cc1c(N=Cc2cc(Br)cc(Br)c2O)cccc1C(=O)O,inactive,–
O=C(CSc1ncc(-c2ccccc2)[nH]1)Nc1cccc(O)c1,"inconclusive: 17.8 µM [inhibitor, full curve]",–
CN(C)CCCNc1c2ccccc2nc2ccccc12,active: 2.24 µM,–
C/C=C/c1ccc(OCC(=O)OCc2csc(CC(=O)Nc3ccccc3C)n2)c(OC)c1,"inconclusive: 12.6 µM [inhibitor, partial curve]",–
COc1ccc(OC)c(CNC(=O)C(C)n2nc(C)c3c(C)n(-c4ccccc4)nc3c2=O)c1 (stereo unspecified),inactive,–
COc1cc2ccccc2cc1C(=O)Nc1ccc(C)cc1,"inconclusive: 0.794 µM [inhibitor, full curve]",–
Cc1cccc(COc2ccc(/C=N/NC(=O)c3nnn(-c4nonc4N)c3C)cc2)c1,"inconclusive: 0.316 µM [inhibitor, full curve, poor fit]",–
Cc1ccc2[nH]c3c(c2c1)CN(C(=O)CN1c2ccc(F)cc2CCC1C)CC3 (stereo unspecified),"inconclusive: 39.8 µM [inhibitor, single point]",–
CCOC(=O)C1=C(CC)Nc2ccccc2N=C1NC(=O)Cn1cnc2ccccc2c1=O,"inconclusive: 3.16 µM [inhibitor, single point]",–
COC(=O)c1[nH]c2cc(OC)ccc2c1NC(=O)c1ccc2c(c1)OCO2,"inconclusive: 8.91 µM [inhibitor, partial curve]",–

Structure (SMILES),Potency,"activity change, negative = inhibition"
CC(C)c1nn2c(=O)cc(COC(=O)c3cccc(NC(=O)CCc4ccccc4)c3)nc2s1,inactive,–
CCN(Cc1ccccc1)C(=O)Cn1c(=O)cc(C)c2c(C)nn(-c3cccc(F)c3)c21,inactive,–
O=C(OCCOCCN=C1NS(=O)(=O)c2ccccc21)c1ccccc1Br,inactive,–
CN(C)S(=O)(=O)c1ccc(N2CCCC2)c(C(=O)Nc2cccc(F)c2)c1,"inconclusive: 20 µM [inhibitor, single point]",–
Cc1c(Cc2ccccc2)c(=O)oc2c(O)c(O)ccc12,active: 12.6 µM,–
Cc1cc(NC(=O)CCN2CCC(C(N)=O)CC2)ccc1Br,"inconclusive: 89.1 µM [inhibitor, single point]",–
Cc1oc2c(cc(NS(=O)(=O)c3cccs3)c3ccccc32)c1C(=O)OC(C)C,"inconclusive: 31.6 µM [inhibitor, full curve]",–
CCN(CC)c1ccc2nc3c(=O)n(C)c(=O)n(C)c3nc2c1,"inconclusive: 3.98 µM [inhibitor, full curve]",–
COc1ccccc1/C=N/Nc1nncc2ccccc12,inactive,–
O=C(O)c1ccccc1SC1CC(=O)N(c2ccc3c(c2)OCO3)C1=O (stereo unspecified),"inconclusive: 50.1 µM [inhibitor, single point]",–
CCC(C(=O)NCc1ccccc1Cl)n1c(=O)c2cccn2c2ccccc21 (stereo unspecified),inactive,–
O=C(c1cc(C(=O)c2ccco2)cc(C(=O)c2ccco2)c1)c1ccco1,"inconclusive: 50.1 µM [inhibitor, partial curve, poor fit]",–
CC(OC(=O)c1ccc(Cl)c(S(=O)(=O)Nc2ccc(F)cc2)c1)C(=O)NC(N)=O (stereo unspecified),"inconclusive: 100 µM [inhibitor, single point]",–
Clc1cccc(Cl)c1C1Nc2cccc3cccc(c23)N1,inactive,–
COc1ccccc1OCc1ccc(C(=O)NCc2ccco2)o1,"inconclusive: 28.2 µM [inhibitor, full curve]",–
CCOc1ccc(C2C(C(C)=O)=C(O)C(=O)N2CCc2c[nH]c3ccccc23)cc1 (stereo unspecified),"inconclusive: 12.6 µM [inhibitor, partial curve, poor fit]",–
O=C(c1ccc(Br)o1)N1N=C(c2ccc(Cl)cc2)CC1c1ccco1 (stereo unspecified),"inconclusive: 25.1 µM [inhibitor, full curve]",–
COc1ccccc1C(=O)Nc1ccccc1OCc1cc(=O)n2cc(C)sc2n1,inactive,–
Cc1ccc(S(=O)(=O)N2CCN(CC(=O)NC3CCCc4ccccc43)CC2)cc1C (stereo unspecified),"inconclusive: 1.26 µM [inhibitor, full curve]",–
CC(=O)Oc1ccc(C(=O)Nc2ccc(C3(C#N)CCCC3)cc2)cc1,active: 12.6 µM,–
CCCSc1nnc(NC(=O)c2cc(=O)c3ccccc3o2)s1,inactive,–
CCCN1CCN(CCCNC(=O)c2cc3c(s2)-c2c(C)cccc2OC3)CC1,inactive,–
COc1cccc(C2(c3cccc(OC)c3)CC2C(=O)Nc2ccc(F)cc2)c1 (stereo unspecified),"inconclusive: 89.1 µM [inhibitor, single point]",–
CCOC(=O)c1c(S(=O)(=O)Nc2ccc(F)cc2C)c(C)n(C)c1C,–,inconclusive: -39.9% [inhibitor]

Structure (SMILES),Potency,"activity change, negative = inhibition"
O=[N+]([O-])c1ccc(/C=C/C2=NN(c3ccccc3)C(c3ccco3)C2)o1 (stereo unspecified),"inconclusive: 100 µM [inhibitor, single point]",–
Cc1ccc(C(=O)N/N=C\c2ccc([N+](=O)[O-])s2)cn1,"inconclusive: 89.1 µM [inhibitor, single point]",–
CCOC(=O)c1cnc2c(ccc3ccccc32)c1NCCN(C)C,"inconclusive: 44.7 µM [inhibitor, partial curve]",–
Cn1c(=O)[nH]c(=O)c2c1ncn2CCCc1ccccc1,"inconclusive: 3.98 µM [inhibitor, full curve, poor fit]",–
O=C(NC1CCCc2ccccc21)c1cncc(Br)c1 (stereo unspecified),"inconclusive: 3.55 µM [inhibitor, single point]",–
CCOC(=O)C1=C(N)n2c(s/c(=C\c3cccnc3)c2=O)=C(C(=O)OCC)C1c1cccnc1 (stereo unspecified),"inconclusive: 2.24 µM [inhibitor, full curve, poor fit]",–
COc1cccc(NC(=O)Cn2c(=O)n(-c3ccc(C)cc3)c(=O)c3ccccc32)c1,inactive,–
O=C(N/N=C/c1cccs1)c1cc(-c2ccc(Cl)s2)[nH]n1,active: 44.7 µM,–
O=C(/C=C/c1ccco1)NC(=S)Nc1ccc(N2CCOCC2)c(Cl)c1,"inconclusive: 11.2 µM [inhibitor, full curve, poor fit]",–
COc1cc(NC(=O)c2ccc3c(SCC(=O)O)c4c(nc3c2)CCCC4)cc(OC)c1OC,"inconclusive: 89.1 µM [inhibitor, single point]",–
Brc1ccc(-c2nn3c(-c4ccco4)nnc3s2)o1,active: 44.7 µM,–
CCc1cc(=O)oc2cc(C)c3c(C)coc3c12,"inconclusive: 100 µM [inhibitor, single point]",–
CCCc1nnc(NC(=O)CSc2nnc3c4ccccc4n(CC)c3n2)s1,"inconclusive: 89.1 µM [inhibitor, single point]",–
COC(=O)c1cc(C(=O)c2cc(F)ccc2O)cn2c(=O)c3c(C)c(C)sc3nc12,active: 31.6 µM,–
COc1ccc2c(C)cc(SCC(=O)Nc3c(C)n(C)n(-c4ccccc4)c3=O)nc2c1,"inconclusive: 5.62 µM [inhibitor, full curve]",–
COc1cccc(CNC(=O)CCc2c(C)nn(-c3ccc(N4CCCC4)nn3)c2C)c1,inactive,–
Cc1cc(C(=O)OCC(=O)Nc2ccc(S(=O)(=O)N3CCOCC3)cc2)c(C)o1,inactive,–
COc1cccc(/C(O)=C/c2nc3ccc(C(=O)NCCc4cccc(C)c4)cc3[nH]c2=O)c1,inactive,–
COc1ccc([N+](=O)[O-])cc1NC(=O)Nc1ccc(OC)c(OC)c1,active: 20 µM,–
CC(/C=N/n1c(-c2ccc(Cl)cc2)n[nH]c1=S)=C\c1ccco1,"inconclusive: 39.8 µM [inhibitor, single point]",–
Cc1cc(F)ccc1NC(=O)C1CCCN(C(=O)c2cnn(-c3ccccc3)c2-n2cccc2)C1 (stereo unspecified),inactive,–
CNc1nc(C(=O)O)nc(N2CCOCC2)n1,inactive,–
CN(C)C(=O)c1cc(C(=O)c2c(F)cccc2F)c[nH]1,"inconclusive: 2.24 µM [inhibitor, partial curve, poor fit]",–

# Exported tab-delimited: three of the compounds above.
Structure (SMILES)	Potency	activity change, negative = inhibition
O=[N+]([O-])c1ccc(/C=C/C2=NN(c3ccccc3)C(c3ccco3)C2)o1 (stereo unspecified)	inconclusive: 100 µM [inhibitor, single point]	–
CCc1cc(=O)oc2cc(C)c3c(C)coc3c12	inconclusive: 100 µM [inhibitor, single point]	–
Cc1cc(F)ccc1NC(=O)C1CCCN(C(=O)c2cnn(-c3ccccc3)c2-n2cccc2)C1 (stereo unspecified)	inactive	–
